Measured data: PubChem BioAssay AID1224828 (NIAID, 2016)
Screen: 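Regulators linking TLR4 signalling to p65 nuclear translocation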 (primary screen). System: mouse RAW264.7 G9 macrophage reporter cells (GFP-p65, Tnf promoter-mCherry). Reagents: siRNA pool against mouse genes, 100 nM. Timing: 2 days siRNA transfection, then 40 min LPS before fixation. Treatment: LPS (Salmonella minnesota R595) at 10 ng/ml. Read-out: 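Imaged p65 nuclear translocation ratio, normalised to the plate median, converted to robust z-scores and averaged across two replicates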. Reading the numbers: p65 translocation robust z-score: higher = more nuclear NF-kappaB p65 after LPS than the plate median; nuclear/cytoplasmic p65 ratio: higher = more nuclear NF-kappaB p65. Active means: 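Called active when z exceeds 3.3 or falls under -1.56 (median of Tlr4 controls), giving activity score of at least 50; no calls for control wells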. Calls: active = hit (p65 shift raised or lowered); inactive = no clear change.
This is an unselected part of about 17,000 reagents tested. Over the whole deposit, 762 (4.5%) were called active. 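Active calls include both raised and lowered p65 entry, mostly lowered; wells with fewer than 50 cells lack a z-score.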 Raw values are not corrected between plates.

Gene | p65 translocation robust z-score | nuclear/cytoplasmic p65 ratio, rep 1 | nuclear/cytoplasmic p65 ratio, rep 2 | low cell count flag | Outcome
Azgp1 | -0.83 | 1.4 | 1.48 | enough cells to score | inactive
Svs3b | 0.05 | 1.41 | 1.58 | enough cells to score | inactive
Chd1l | -0.97 | 1.36 | 1.71 | enough cells to score | inactive
Rapgef2 | -0.3 | 1.49 | 1.15 | enough cells to score | inactive
Txlnb | – | 3.17 | 0.971 | fewer than 50 cells per well; well left out of scoring | inactive
Pitx1 | -0.82 | 1.35 | 1.33 | enough cells to score | inactive
Ppp1r13b | 0.81 | 1.5 | 1.62 | enough cells to score | inactive
Cmtm8 | 0.85 | 1.63 | 2.02 | enough cells to score | inactive
Fbp2 | 0.19 | 1.51 | 1.26 | enough cells to score | inactive
Ttc3 | -1.07 | 1.28 | 1.11 | enough cells to score | inactive
Arel1 | -0.96 | 1.41 | 1.31 | enough cells to score | inactive
Cds1 | -0.5 | 1.49 | 1.73 | enough cells to score | inactive
Dlg4 | – | 1.62 | 1.5 | fewer than 50 cells per well; well left out of scoring | inactive
Ppp2r3c | 1.74 | 1.16 | 1.51 | enough cells to score | inactive
Slc51a | -2 | 1.25 | 1.29 | enough cells to score | active
Or6c202 | -0.8 | 1.33 | 1.08 | enough cells to score | inactive
Tsnax | – | 1.35 | 1.24 | fewer than 50 cells per well; well left out of scoring | inactive
Dgkb | 0.43 | 1.84 | 1.37 | enough cells to score | inactive
Adcy2 | 0.06 | 1.63 | 1.67 | enough cells to score | inactive
Or6c3 | – | 1.34 | 1.14 | fewer than 50 cells per well; well left out of scoring | inactive
Arf1 | 0.78 | 1.85 | 1.62 | enough cells to score | inactive
Ell | 2.24 | 1.69 | 1.72 | enough cells to score | inactive
H2-M10.5 | 2.3 | 2.03 | 1.84 | enough cells to score | inactive
Lama2 | 1.07 | 1.67 | 1.47 | enough cells to score | inactive
Or4c11b | -0.65 | 1.62 | 1.58 | enough cells to score | inactive
Mpp1 | -0.67 | 1.7 | 1.29 | enough cells to score | inactive
Cabyr | -0.77 | 1.47 | 1.52 | enough cells to score | inactive
Spata20 | – | 1.6 | 1.14 | fewer than 50 cells per well; well left out of scoring | inactive
Heyl | 0.59 | 1.46 | 1.5 | enough cells to score | inactive
Sbp | 0.66 | 1.46 | 1.33 | enough cells to score | inactive
Klk1b26 | -0.87 | 1.2 | 1.52 | enough cells to score | inactive
S100g | 0.04 | 1.72 | 1.66 | enough cells to score | inactive

Active calls, of those listed so far:
Gene | p65 translocation robust z-score | nuclear/cytoplasmic p65 ratio, rep 1 | nuclear/cytoplasmic p65 ratio, rep 2 | low cell count flag | Outcome
Slc51a | -2 | 1.25 | 1.29 | enough cells to score | active

The listing continues.
Gene | p65 translocation robust z-score | nuclear/cytoplasmic p65 ratio, rep 1 | nuclear/cytoplasmic p65 ratio, rep 2 | low cell count flag | Outcome
Ppp3cc | -0.01 | 1.51 | 1.4 | enough cells to score | inactive
Large2 | -1.92 | 1.38 | 1.25 | enough cells to score | active
Or8h8 | -0.69 | 1.57 | 1.46 | enough cells to score | inactive
Atf4 | -0.87 | 1.48 | 1.49 | enough cells to score | inactive
Spdye4b | – | 1.26 | 1.23 | fewer than 50 cells per well; well left out of scoring | inactive
Gas2 | 0.71 | 1.52 | 1.47 | enough cells to score | inactive
Ak8 | 0.53 | 1.33 | 1.45 | enough cells to score | inactive
Eif2ak3 | -0.08 | 1.65 | 1.39 | enough cells to score | inactive
Or5p60 | – | 1.41 | 1.28 | fewer than 50 cells per well; well left out of scoring | inactive
Ift22 | -0.24 | 1.38 | 1.17 | enough cells to score | inactive
Tmod3 | 0.95 | 1.49 | 1.22 | enough cells to score | inactive
Setd4 | – | 1.4 | 1.39 | fewer than 50 cells per well; well left out of scoring | inactive
Vmn1r24 | 0.32 | 1.49 | 1.22 | enough cells to score | inactive
Zfyve9 | 1.19 | 1.62 | 1.52 | enough cells to score | inactive
Krtap6-5 | 0.81 | 1.66 | 1.54 | enough cells to score | inactive
Iapp | 0.17 | 1.44 | 1.42 | enough cells to score | inactive
Cavin1 | – | 1.33 | 1.31 | fewer than 50 cells per well; well left out of scoring | inactive
Mtnr1a | -0.14 | 1.49 | 1.97 | enough cells to score | inactive
Agap3 | 0.1 | 1.64 | 1.77 | enough cells to score | inactive
Mrgpra7 | 0.53 | 1.92 | 1.63 | enough cells to score | inactive
Nsg2 | 1.72 | 2.1 | 1.68 | enough cells to score | inactive
4930591A17Rik | – | 1.29 | 1.18 | fewer than 50 cells per well; well left out of scoring | inactive
Get3 | -0.34 | 1.5 | 1.52 | enough cells to score | inactive
Ghrh | -0.21 | 1.29 | 1.46 | enough cells to score | inactive
Tmem168 | -0.06 | 1.49 | 1.46 | enough cells to score | inactive
Msh6 | 0.02 | 1.45 | 1.34 | enough cells to score | inactive
Camkk1 | 0.77 | 1.9 | 1.41 | enough cells to score | inactive
